Results are given in words; binding and its absence hold for the method and conditions named. Some entries that bind do so weakly or less than the wild type.
Molecular target: scFv1 conjugated with a GST tag (PET-N-GST-scFv1) (Nile tilapia (Oreochromis niloticus))
Experiment: far-Western, overlay or dot blot

binding: binds
B1: S3-WT expressed in prokaryotes (pET32a) (peptide)
chain: GYQLASEIRGTIPLSS

Reference: article PMC12724136, “Design of antibody structure-guided epitope vaccines in silico to induce potent immune responses against emerging viruses” (Journal of Virology, 2025)
